Results from PMC11997338.
Results are given in words; binding and its absence hold for the method and conditions named. In cells and extracts the contact can be indirect. Some binding calls cover weakened binding; strength is not graded here.

Biological target: T1, endogenous endoglin (ENG) of mouse dental papilla cells (mouse (endogenous in postnatal 2 mouse molars)) (UniProt Q63961)
T1 sequence: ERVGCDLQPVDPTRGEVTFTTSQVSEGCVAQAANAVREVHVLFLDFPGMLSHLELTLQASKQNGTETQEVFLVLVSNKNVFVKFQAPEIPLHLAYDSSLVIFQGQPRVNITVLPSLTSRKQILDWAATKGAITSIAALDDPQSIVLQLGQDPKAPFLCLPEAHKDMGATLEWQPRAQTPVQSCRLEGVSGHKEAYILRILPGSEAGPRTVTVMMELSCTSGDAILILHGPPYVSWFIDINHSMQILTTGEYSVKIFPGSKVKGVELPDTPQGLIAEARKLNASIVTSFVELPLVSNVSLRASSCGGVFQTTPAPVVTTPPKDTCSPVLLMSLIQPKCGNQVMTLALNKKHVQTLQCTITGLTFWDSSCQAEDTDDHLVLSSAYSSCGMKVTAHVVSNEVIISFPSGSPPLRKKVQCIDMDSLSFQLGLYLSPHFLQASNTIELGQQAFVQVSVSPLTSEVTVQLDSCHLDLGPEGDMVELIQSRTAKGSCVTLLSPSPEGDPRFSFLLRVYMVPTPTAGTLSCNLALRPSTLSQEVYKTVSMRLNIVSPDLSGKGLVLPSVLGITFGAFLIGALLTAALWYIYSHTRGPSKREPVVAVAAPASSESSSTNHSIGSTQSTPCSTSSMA
Assay: proximity ligation; 5-μm sections of postnatal 2 mouse molars; anti-DSP and anti-ENG antibodies, rabbit and goat IgG as isotype controls; Duolink in situ PLA

binding: binds
B1: endogenous dentin sialoprotein (DSP) of mouse molars (protein, UniProt P97399 18-451)
chain: IPVPQLVPLERDIVENSVAVPLLTHPGTAAQNELSINSTTSNSNDSPDGSEIGEQVLSEDGYKRDGNGSESIHVGGKDFPTQPILVNEQGNTAEEHNDIETYGHDGVHARGENSTANGIRSQVGIVENAEEAESSVHGQAGQNTKSGGASDVSQNGDATLVQENEPPEASIKNSTNHEAGIHGSGVATHETTPQREGLGSENQGTEVTPSIGEDAGLDDTDGSPSGNGVEEDEDTGSGDGEGAEAGDGRESHDGTKGQGGQSHGGNTDHRGQSSVSTEDDDSKEQEGFPNGHNGDNSSEENGVEEGDSTQATQDKEKLSPKDTRDAEGGIISQSEACPSGKSQDQGIETEGPNKGNKSIITKESGKLSGSKDSNGHQGVELDKRNSPKQGESDKPQGTAEKSAAHSNLGHSRIGSSSNSDGHDSYEFDDESMQG
